Laboratory results from PubChem BioAssay AID1487 (National Center for Advancing Translational Sciences (NCATS), 2009).
Where “and” joins values, the source holds several entries; their conditions need not be identical. Equal entries are not always repeated. The list shows a part of the results. These are further read-outs of the screen, such as a control signal, another cell line or another target. No call is given for them. Compounds called inactive in the main read-out are mostly missing here. Words in brackets tell the shape of the fitted curve; partial curves, single points and poor fits give uncertain potencies.

Assay: qHTS Assay for Modulators of Lamin A Splicing
Conditions: HeLa LMNA splicing GFP/RFP minigene ratio, 48 h
How it was run: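 Read-out is the ratio of GFP to DsRed2 object intensity, acquired by 488 nm laser-scanning cytometry on HeLa lamin A-EGFP minigene reporter cells. Compound incubation 48 hrs at 37 °C in Opti-MEM with 2% FBS; DMSO 0.5% final.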

[1] = measured here: GFP splicing reporter channel
[2] = measured here: RFP viability control channel

Compound	AC50 [1]	AC50 [2]
CC1=C(C(=O)N2CCc3ccccc32)C2(CCC(C)CC2)OC1=O (stereo not given)	31.6 µM [rising, single point]	31.6 µM [rising, single point]
CCN(CC)C(=O)c1ccc2nc3ccccc3nc2c1	17.8 µM [rising, single point]	31.6 µM [rising, single point]
O=C(Nc1cn(-c2ccccc2)nc1-c1ccc(Cl)cc1)c1ccccc1	3.98 µM [falling, partial curve, poor fit]	3.98 µM [falling, partial curve]
O=C(N/N=C\c1cccc(F)c1)c1ccc(Cn2cc(Br)c([N+](=O)[O-])n2)o1		0.501 µM [falling, full curve, poor fit]
CCCCN(Cc1ccccc1)S(=O)(=O)c1cc(Br)cc2c1N(C(C)=O)C(C)C2 (stereo not given)	11.2 µM [rising, single point]	12.6 µM [rising, single point]
CCc1nc2n[nH]c(N)c2c2c1CSC(C)(C)C2		35.5 µM [rising, single point]
Cc1ccc(CNC(=O)CCC2CCCN(C(=O)CCC(F)(F)F)C2)o1 (stereo not given)	5.62 µM [falling, single point]	3.55 µM [falling, partial curve]
CC(C)(C)C1CCC(=NNC(=S)NCc2ccccc2)CC1 (stereo not given)	31.6 µM [rising, single point]	17.8 µM [rising, single point]
COc1ccc2[nH]cc(CCNc3nc(-c4ccoc4)nc4ccccc34)c2c1	35.5 µM [falling, single point]	
CC1=Nc2ccccc2N=C(NC(=O)CSc2nnnn2-c2ccccc2)C1c1ccccc1 (stereo not given)	14.1 µM [rising, single point]	
CCCCn1c(SCC(=O)c2ccc(O)c(O)c2)nc2ccsc2c1=O		20 µM [rising, single point]
O=C(Nc1ccccc1)c1cc(S(=O)(=O)N2CCSCC2)ccc1Cl		35.5 µM [rising, single point]
Cc1ccc(N(Cc2ccc(C(=O)NCCSc3ccccn3)cc2)S(C)(=O)=O)cc1C		12.6 µM [rising, partial curve]
CCC(=O)N(Cc1ccco1)Cc1cc2cccc(C)c2n2nnnc12	0.01 µM [falling, full curve, poor fit]	
COc1cc(OC)cc(C(=O)OCCNC(=O)Cn2cnc3c2c(=O)n(C)c(=O)n3C)c1	0.00794 µM [rising, partial curve, poor fit]	
O=C(Nc1nnc(-c2cccs2)o1)c1cccc(Oc2ccccc2)c1		4.47 µM [rising, full curve, poor fit]
CC1CCCC(n2c(=S)[nH]c3ccccc3c2=O)C1C (stereo not given)	35.5 µM [falling, single point]	35.5 µM [falling, single point]
CN1CCN(S(=O)(=O)c2cccc(C(=O)NC3CCCc4ccccc43)c2)CC1 (stereo not given)	35.5 µM [rising, single point]	
COc1ccc(-c2cc(C(=O)N3CCN(c4ncccn4)CC3)c3ccccc3n2)c(OC)c1	0.00891 µM [rising, full curve, poor fit]	6.31 µM [rising, full curve, poor fit]
CSc1ccc(CN2CCC(CO)(Cc3ccc(Cl)cc3)CC2)cc1	12.6 µM [falling, partial curve]	22.4 µM [falling, partial curve]
O=C(Nc1ccc2oc(-c3cccc4ccccc34)nc2c1)c1ncn[nH]1		35.5 µM [falling, single point]
COC(=O)C1=C(C(=O)OC)[C@@H]2N(C)c3ccc(OC)cc3[C@@]23C[C@@H](C(=O)OC)N(C(=O)c2cc(C)oc2C)C3=N1	0.000794 µM [rising, full curve, poor fit]	
Cn1c(SCC(=O)N2CCCCCC2)nc2c([nH]c3ccccc32)c1=O		0.2 µM [rising, full curve, poor fit]
CN(C)CCCN(C(=O)CCSc1ccccc1)c1nc2cc3c(cc2s1)OCO3		3.16 µM [falling, partial curve, poor fit]
CSc1ccc(CCNc2ncnc3onc(C)c23)cc1	17.8 µM [falling, partial curve]	
COCCCNCC1C(Oc2ccc(Cl)cc2)C(=O)N1c1ccccc1C (stereo not given)		12.6 µM [rising, single point]
CCOC(=O)c1ccc(NS(=O)(=O)c2cc(C)ccc2OC)cc1	3.55 µM [rising, partial curve]	11.2 µM [rising, partial curve]

Compound	AC50 [1]	AC50 [2]
O=C(c1ccccc1)c1ccc(OCC(O)CN2CCN(S(=O)(=O)N3CCCCC3)CC2)cc1 (stereo not given)		14.1 µM [rising, partial curve]
Cc1ccccc1OCCSCc1nc2ccccc2[nH]1	20 µM [rising, single point]	31.6 µM [rising, single point]
COc1ccc(N/C=C\C(=O)c2ccc3c(c2)OCO3)cc1OC	11.2 µM [rising, partial curve]	
Cc1ccc(NC(=O)OCCN2CCN(Cc3ccccc3)CCC2=O)cc1	12.6 µM [rising, single point]	14.1 µM [rising, single point]
CCN(Cc1ccccc1)C(=O)c1ccc(CNS(=O)(=O)c2ccc(C)cc2)cc1	12.6 µM [rising, single point]	25.1 µM [rising, single point]
O=C(c1csc2c1CCCC2)N1CCN(c2ccc(F)cc2)CC1	35.5 µM [rising, single point]	35.5 µM [rising, single point]
CN(C(=O)COC(=O)c1ccccc1Nc1ccccc1)C1CCS(=O)(=O)C1 (stereo not given)	0.251 µM [rising, full curve, poor fit]	
O=C(Nc1ccc(F)cc1)N(Cc1cccs1)Cc1cc2cc3c(cc2[nH]c1=O)OCO3	5.62 µM [rising, partial curve, poor fit]	
COc1ccc2c(c1)-c1nc(NC(=O)c3ccco3)sc1CC2	35.5 µM [rising, single point]	
CCOC(=O)c1noc2ncnc(N(CCC(=O)OC)c3ccccc3)c12	0.0112 µM [falling, full curve]	
CCOC(=O)c1noc2ncnc(Nc3ccc(C)c(F)c3)c12	1.58 µM [rising, partial curve]	2 µM [rising, full curve, poor fit]
Cc1ccc(-c2cc(N)n3nc(-c4ccc(C)cc4)cc3n2)cc1	14.1 µM [falling, partial curve] and 35.5 µM [falling, single point]	28.2 µM [falling, partial curve] and 22.4 µM [falling, partial curve, poor fit]
CC(Cc1cccs1)NC(=O)Nc1ccc(Cl)c(Cl)c1 (stereo not given)		31.6 µM [rising, single point]
COc1ccc(NS(=O)(=O)c2ccc(NS(=O)(=O)c3ccc(C)cc3)cc2)nn1		35.5 µM [rising, single point]
Cc1noc2ncnc(Oc3ccc(Cl)cc3Cl)c12		15.8 µM [rising, partial curve]
CCCCn1c(/C=N/Nc2nc3ccccc3[nH]2)nc2ccccc21	17.8 µM [rising, single point]	15.8 µM [rising, partial curve, poor fit]
Cc1cccc(C)c1-n1ncc(C(=O)Nc2ccc3c(c2)OCCO3)c1C1CCN(C(=O)OC(C)(C)C)CC1	22.4 µM [falling, partial curve, poor fit]	
Cc1[nH]n(-c2ccccc2)c(=O)c1C(C[N+](=O)[O-])c1ccc(Cl)cc1 (stereo not given)		11.2 µM [rising, partial curve]
O=C(Nc1cc(Cl)ccn1)C1CCN(S(=O)(=O)c2cccs2)CC1	6.31 µM [rising, full curve]	5.62 µM [rising, full curve]
CC1Cc2ccccc2N1CC(=O)NC(=O)NC1CCCCC1 (stereo not given)		0.00398 µM [falling, full curve, poor fit]
O=C(CCCCn1c(=O)c2ccccc2n(Cc2ccccc2F)c1=O)NC1CCN(Cc2ccccc2)CC1	1.26 µM [falling, partial curve]	1.12 µM [falling, partial curve, poor fit]
COC(=O)C(C)Sc1ncnc2c1nnn2-c1ccc(F)cc1 (stereo not given)	35.5 µM [rising, single point]	35.5 µM [rising, single point]
COc1cccc(C(=O)O/N=C(\N)c2ccc([N+](=O)[O-])cc2)c1OC		12.6 µM [falling, single point]
Cc1ccc(S(=O)(=O)NCC2COc3ccccc3O2)cc1 (stereo not given)		31.6 µM [rising, single point]
N#CCSc1nc2c(cc1C#N)CCCC2	6.31 µM [falling, single point]	
C#Cc1ccc(C(=O)Nc2cc(C(N)=O)ccc2N2CCOCC2)cc1		0.0316 µM [rising, full curve, poor fit]
Cc1ccc(-c2nc3ccccc3n2C)o1	5.62 µM [rising, partial curve, poor fit]	8.91 µM [rising, single point]

Single records (already shown).
`Cc1cccc(C)c1-n1ncc(C(=O)Nc2ccc3c(c2)OCCO3)c1C1CCN(C(=O)OC(C)(C)C)CC1` in the list: AC50 [1]: 22.4 µM [falling, partial curve, poor fit]
`Cc1[nH]n(-c2ccccc2)c(=O)c1C(C[N+](=O)[O-])c1ccc(Cl)cc1` (stereo not given) in the list: AC50 [2]: 11.2 µM [rising, partial curve]
`Cc1noc2ncnc(Oc3ccc(Cl)cc3Cl)c12` in the list: AC50 [2]: 15.8 µM [rising, partial curve]
